Test results published in PubChem BioAssay AID624297 (National Center for Advancing Translational Sciences (NCATS), 2012).
Among all 340,000 compounds or so, about 6,200 (1.8%) were called active. Inconclusive means that the source gave no clear call. Such entries were picked first, then a sample of the others. Calls follow the shape of the dose curve; as a rule, active = well fitted activation curve with a large enough effect; inconclusive = small, poorly fitted or top-dose-only effect; inactive = no such curve, though single readings can be large or run the other way. Potencies of inconclusive entries are doubtful fits and often do not repeat.

Experiment: A quantitative high throughput screen for small molecules that induce DNA re-replication in SW480 colon adenocarcinoma cells. Also: nearly all actives have a fitted effect of over 55% in size. As to re-replication activation: % of control where 0% means no effect.
Conditions: Hoechst DNA content imaging, 48 h; re-replication activation: at 46.1 µM (top of the series) unless noted
Procedure, shortened: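 Hoechst fluorescence of nuclei (405 nm excitation, 500-530 nm emission) measured by plate-scanning imager after 48 hr compound exposure at 37 C; re-replication scored as increased number of nuclei with elevated intensity.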
Potency is read from the fitted curve at half-maximal effect.

Q: Which Potency does the source give for `COc1ccc(C(CCN2CCOCC2)c2c(O)cc(OC)cc2OC)cc1` (configuration not stated) here?
A: Its Potency is inconclusive: 6.51 µM [activator, single point].

Q: With `Cc1nc(-c2ccc(C(F)(F)F)cc2)sc1C(=O)NN` as the molecule, how does the Potency read?
A: The Potency was inconclusive: 29.1 µM [activator, single point].

Q: Which Potency does the source give for `c1cc2c3c(cccc3c1)NC1(CCC3(CC1)Nc1cccc4cccc(c14)N3)N2` here?
A: Its Potency is inconclusive: 29.1 µM [activator, single point].

Q: Which Potency does the source give for `O=C(CCl)Nc1ccccc1C(=O)c1ccccc1` here?
A: The Potency was active: 14.6 µM.

Q: Which Potency does the source give for `Cn1c(=O)[nH]c(=O)c2[nH]c(N(Cc3ccccc3)Cc3ccccc3)nc21` here?
A: Its Potency is inconclusive: 29.1 µM [activator, single point].

Q: Which “re-replication activation” value does the source give for `CC(=O)Nc1ccc(S(=O)(=O)NC(C)C(=O)NCCc2ccc(F)cc2)cc1` (configuration not stated) here?
A: Its value is inactive: -0.0823%.

Q: Which Potency does the source give for `Cc1cc([N+](=O)[O-])nn1CC(=O)N/N=C/c1ccc(O)cc1O` here?
A: The Potency was inconclusive: 2.91 µM [activator, single point].

Q: Which “re-replication activation” value does the source give for `N#C/C(=C\c1ccc([N+](=O)[O-])cc1)C(=O)Nc1ccccc1O` here?
A: Its value is inactive: -1.48%.

Q: For `CC(NCCN(C)C)C(=O)C12CC3CC(CC(C3)C1)C2` (configuration not stated), which Potency is on record?
A: The Potency was inconclusive: 0.146 µM [activator, full curve, poor fit].

Q: For `CSc1cccc(-n2cc(-c3ccc4c(c3)OCO4)[nH]c2=O)c1`, which Potency is on record?
A: The Potency was active: 20.6 µM.

Q: With `Cc1c(-c2ccccc2)n[nH]c1C(=O)N=Nc1c(O)[nH]c2ccccc12` as the molecule, how does the Potency read?
A: Its Potency is inconclusive: 23.1 µM [activator, single point].

Q: With `O=C(/C=C/c1ccccc1)NC(=S)Nc1ccccc1O` as the molecule, how does the Potency read?
A: The Potency was inconclusive: 32.6 µM [activator, partial curve, poor fit].

Q: Which “re-replication activation” value does the source give for `O=C(Nc1nnc(SCc2ccc(F)cc2)s1)C1Cc2ccccc2CN1C(=O)c1ccco1` (configuration not stated) here?
A: The value was inactive: 1.7%.

Q: Which Potency does the source give for `CC1CC(NNC(=O)c2ccccc2)=Nc2ccccc2N1C` (configuration not stated) here?
A: Its Potency is inconclusive: 29.1 µM [activator, single point].

Q: With `COc1cc(C2C(C(=O)c3cc4ccccc4o3)=C(O)C(=O)N2CCN2CCOCC2)ccc1OCCC(C)C` (configuration not stated) as the molecule, how does the “re-replication activation” value read?
A: Its value is inactive: 17.6%.

Q: With `O=c1oc(-c2ccccc2F)nc2scc(-c3ccccc3)c12` as the molecule, how does the Potency read?
A: Its Potency is inconclusive: 0.0092 µM [activator, full curve, poor fit].

Q: Which Potency does the source give for `CC1=CC(C)(C)Nc2ccc(OC(=O)CN3C(=O)c4cccc5cccc(c45)C3=O)cc21` here?
A: The Potency was inconclusive: 20.6 µM [activator, single point].

Q: For `CCc1ccc(-c2nc(CN3CCC(C(=O)NCc4ccc(F)cc4)CC3)c(C)o2)cc1`, which Potency is on record?
A: Its Potency is inconclusive: 20.6 µM [activator, partial curve].

Q: Which Potency does the source give for `CC12CC3CC(C)(C1)CC(C(=O)Nc1nncs1)(C3)C2` here?
A: The Potency was inconclusive: 23.1 µM [activator, single point].

Q: Which Potency does the source give for `O=C(NC1CCCCC1)C(c1cccnc1)N(C(=O)CCl)c1cccc(Cl)c1` (configuration not stated) here?
A: Its Potency is active: 4.11 µM.

Q: For `O=C(Oc1cccc2cccnc12)c1cccc(N2C(=O)C3C4CCC(C4)C3C2=O)c1` (configuration not stated), which Potency is on record?
A: Its Potency is inconclusive: 32.6 µM [activator, single point].

Q: For `CCOC(=O)C1=C(C)Nc2sc(C(=O)c3ccc(Br)cc3)c(N)c2C1c1ccc(C(=O)OC)cc1` (configuration not stated), which Potency is on record?
A: The Potency was inconclusive: 8.2 µM [activator, partial curve].

Q: For `COc1cc(OC)cc(C(=O)N[C@H](C(=O)OCC(=O)c2ccc(C)c([N+](=O)[O-])c2)C(C)C)c1`, which “re-replication activation” value is on record?
A: Its value is inactive: 4.59%.

Q: Which Potency does the source give for `COCCCNC(=S)NNC(=S)Nc1ccc(OC)cc1` here?
A: Its Potency is inconclusive: 6.51 µM [activator, partial curve, poor fit].

Q: With `CCOc1ccc(NC(=O)CN(C)C(=O)CC2CC3CCC2C3)cc1OCC` (configuration not stated) as the molecule, how does the Potency read?
A: Its Potency is inconclusive: 29.1 µM [activator, partial curve, poor fit].

Q: With `O=C(Nc1ccc(S(=O)(=O)N2CCCCC2)cc1)C1CCN(C(=O)c2ccco2)CC1` as the molecule, how does the Potency read?
A: The Potency was inconclusive: 0.708 µM [activator, full curve, poor fit].

Q: For `O=C(OCc1ccc(-c2ccccc2)cc1)c1cccc(O)c1`, which Potency is on record?
A: The Potency was inconclusive: 29.1 µM [activator, single point].

Q: Which “re-replication activation” value does the source give for `O=C(CN1C(=O)NC(Cc2c[nH]c3ccccc23)C1=O)Nc1cccc(S(=O)(=O)N2CCCCCC2)c1` (configuration not stated) here?
A: Its value is inactive: 15.8%.

Q: With `O=C1NC(=O)C(Cc2ccc(Cl)cc2)(c2ccccc2)N1` (configuration not stated) as the molecule, how does the “re-replication activation” value read?
A: The value was inactive: -0.266%.

Q: Which Potency does the source give for `O=C(NNC(=O)c1ccccc1OCc1ccccc1)c1ccccc1O` here?
A: The Potency was inconclusive: 2.06 µM [activator, partial curve, poor fit].

Q: Which “re-replication activation” value does the source give for `COc1ccc(NC(=O)C2CCN(S(=O)(=O)c3cccc4nonc34)CC2)cc1OC` here?
A: Its value is inactive: -25.9%.

Q: Which Potency does the source give for `FC(F)(F)C1CCCN(c2nsc3ccccc23)C1` (configuration not stated) here?
A: Its Potency is inconclusive: 29.1 µM [activator, partial curve, poor fit].

Q: For `COc1ccc(-c2oc(=O)c3cc(OC)c(OC)cc3c2/C=C/c2ccc(F)cc2)cc1`, which Potency is on record?
A: The Potency was inconclusive: 2.31 µM [activator, partial curve, poor fit].

Q: For `CC(C)(C)c1ccc(O)c(O)c1`, which Potency is on record?
A: Its Potency is inconclusive: 0.231 µM [activator, full curve, poor fit].

Q: For `CCC(OC(=O)c1cc2sccc2n1C)C(=O)NCc1ccco1` (configuration not stated), which Potency is on record?
A: Its Potency is inconclusive: 18.4 µM [activator, single point].

Q: For `C/C(=N\NC(=O)c1ccc(F)cc1)c1ccccn1`, which Potency is on record?
A: Its Potency is inconclusive: 32.6 µM [activator, partial curve, poor fit].

Q: With `O=C(CC1CCCC1)Nc1ccc(Cl)c(S(=O)(=O)N2CCOCC2)c1` as the molecule, how does the Potency read?
A: Its Potency is inconclusive: 20.6 µM [activator, single point].

Q: For `O=C(Nc1ccccc1)/C(=C/c1ccc(O)cc1)NC(=O)c1ccco1`, which “re-replication activation” value is on record?
A: Its value is inactive: -1.45%.

Q: For `COCCOC(=O)c1[nH]c2c(c1C)C(=O)CC(c1cc(OC)ccc1OC)C2` (configuration not stated), which Potency is on record?
A: Its Potency is active: 13 µM.

Q: With `CCc1ccc2nc(N(CCCN(C)C)C(=O)c3ccc(S(=O)(=O)N4CCCC4)cc3)sc2c1` as the molecule, how does the Potency read?
A: The Potency was inconclusive: 18.4 µM [activator, single point].

Q: For `OCC1CCCCN1C(=S)Nc1ccc(Cl)cc1Cl` (configuration not stated), which Potency is on record?
A: The Potency was inconclusive: 0.092 µM [activator, full curve, poor fit].

Q: For `O=C(/C=C/C(Cl)(Cl)Cl)Nc1ccc(Cl)cc1`, which Potency is on record?
A: Its Potency is inconclusive: 29.1 µM [activator, single point].
